Laboratory results published in patent EP1988165A1.
These are yes or no findings as the source states them, for the method shown. For some assays here: In cells and extracts the contact can be indirect. Some results given as binding are weak or reduced against the parent protein; the word gives no strength. Each block holds one substance with its values, some of them ahead of it.

Chains of the proteins cited; added tags and fusions are not shown. Lines headed by an entry give the natural chain unless they say otherwise; changes in a name come on top. Residues count along the entry.
UniProt Q93034: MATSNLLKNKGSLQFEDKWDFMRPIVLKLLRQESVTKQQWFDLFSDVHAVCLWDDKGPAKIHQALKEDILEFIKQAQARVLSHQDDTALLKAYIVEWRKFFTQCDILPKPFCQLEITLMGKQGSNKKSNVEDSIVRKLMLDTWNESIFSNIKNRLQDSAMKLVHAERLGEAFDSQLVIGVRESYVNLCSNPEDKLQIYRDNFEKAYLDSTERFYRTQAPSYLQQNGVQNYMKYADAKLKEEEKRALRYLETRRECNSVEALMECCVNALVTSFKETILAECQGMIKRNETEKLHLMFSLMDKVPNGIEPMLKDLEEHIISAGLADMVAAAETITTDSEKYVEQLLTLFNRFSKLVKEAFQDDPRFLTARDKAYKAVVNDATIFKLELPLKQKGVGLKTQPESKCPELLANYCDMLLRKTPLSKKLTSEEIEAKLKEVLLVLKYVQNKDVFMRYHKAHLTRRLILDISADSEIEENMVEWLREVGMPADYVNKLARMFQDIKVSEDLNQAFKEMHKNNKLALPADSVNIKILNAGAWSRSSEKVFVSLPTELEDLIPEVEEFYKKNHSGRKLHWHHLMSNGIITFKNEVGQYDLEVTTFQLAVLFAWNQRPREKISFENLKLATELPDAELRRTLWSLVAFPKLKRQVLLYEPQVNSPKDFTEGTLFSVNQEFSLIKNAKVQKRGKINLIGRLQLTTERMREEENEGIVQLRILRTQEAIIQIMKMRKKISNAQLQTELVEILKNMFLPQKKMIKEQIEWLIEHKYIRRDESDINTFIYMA
UniProt Q8BZQ7, residues 15-837: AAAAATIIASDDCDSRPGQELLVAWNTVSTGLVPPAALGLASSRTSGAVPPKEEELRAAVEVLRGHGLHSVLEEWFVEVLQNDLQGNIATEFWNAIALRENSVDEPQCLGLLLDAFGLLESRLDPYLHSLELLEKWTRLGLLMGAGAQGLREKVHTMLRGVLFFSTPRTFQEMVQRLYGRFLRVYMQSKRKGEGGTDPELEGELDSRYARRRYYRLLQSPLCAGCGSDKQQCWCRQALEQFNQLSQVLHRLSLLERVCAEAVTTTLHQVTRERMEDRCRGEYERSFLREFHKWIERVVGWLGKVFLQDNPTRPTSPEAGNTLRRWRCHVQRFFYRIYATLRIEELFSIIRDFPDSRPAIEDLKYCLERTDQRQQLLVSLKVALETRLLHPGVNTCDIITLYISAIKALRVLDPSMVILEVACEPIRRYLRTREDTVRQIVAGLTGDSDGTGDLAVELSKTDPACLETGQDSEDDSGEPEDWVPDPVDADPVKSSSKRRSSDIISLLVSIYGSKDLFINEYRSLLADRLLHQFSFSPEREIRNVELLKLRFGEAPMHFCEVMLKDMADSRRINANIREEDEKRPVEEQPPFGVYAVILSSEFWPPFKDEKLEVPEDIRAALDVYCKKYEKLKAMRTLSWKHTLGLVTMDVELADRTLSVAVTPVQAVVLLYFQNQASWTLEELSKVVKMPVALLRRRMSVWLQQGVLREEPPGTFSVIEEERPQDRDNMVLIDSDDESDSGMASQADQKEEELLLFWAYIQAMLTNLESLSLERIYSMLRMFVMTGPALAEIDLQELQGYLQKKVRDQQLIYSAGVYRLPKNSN
UniProt Q13616: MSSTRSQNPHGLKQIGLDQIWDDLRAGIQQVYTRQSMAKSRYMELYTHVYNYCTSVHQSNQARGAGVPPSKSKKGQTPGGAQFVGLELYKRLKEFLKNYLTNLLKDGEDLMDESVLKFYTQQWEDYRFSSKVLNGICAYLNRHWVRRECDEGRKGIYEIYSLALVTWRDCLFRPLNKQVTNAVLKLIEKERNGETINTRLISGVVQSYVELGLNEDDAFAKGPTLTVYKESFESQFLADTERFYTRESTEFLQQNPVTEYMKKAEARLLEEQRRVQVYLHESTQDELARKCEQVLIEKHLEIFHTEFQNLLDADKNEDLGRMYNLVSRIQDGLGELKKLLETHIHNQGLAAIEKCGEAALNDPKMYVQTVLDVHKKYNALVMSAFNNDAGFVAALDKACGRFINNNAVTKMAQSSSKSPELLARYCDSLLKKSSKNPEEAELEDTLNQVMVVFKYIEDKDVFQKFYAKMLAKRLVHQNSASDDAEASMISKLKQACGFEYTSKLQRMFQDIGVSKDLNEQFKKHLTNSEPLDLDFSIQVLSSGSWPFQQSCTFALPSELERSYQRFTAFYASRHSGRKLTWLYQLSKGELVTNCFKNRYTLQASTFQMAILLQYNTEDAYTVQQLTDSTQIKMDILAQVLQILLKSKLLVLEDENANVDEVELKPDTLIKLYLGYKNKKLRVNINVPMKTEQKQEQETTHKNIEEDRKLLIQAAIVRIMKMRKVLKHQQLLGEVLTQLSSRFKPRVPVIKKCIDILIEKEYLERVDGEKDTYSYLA
UniProt Q3TCH7: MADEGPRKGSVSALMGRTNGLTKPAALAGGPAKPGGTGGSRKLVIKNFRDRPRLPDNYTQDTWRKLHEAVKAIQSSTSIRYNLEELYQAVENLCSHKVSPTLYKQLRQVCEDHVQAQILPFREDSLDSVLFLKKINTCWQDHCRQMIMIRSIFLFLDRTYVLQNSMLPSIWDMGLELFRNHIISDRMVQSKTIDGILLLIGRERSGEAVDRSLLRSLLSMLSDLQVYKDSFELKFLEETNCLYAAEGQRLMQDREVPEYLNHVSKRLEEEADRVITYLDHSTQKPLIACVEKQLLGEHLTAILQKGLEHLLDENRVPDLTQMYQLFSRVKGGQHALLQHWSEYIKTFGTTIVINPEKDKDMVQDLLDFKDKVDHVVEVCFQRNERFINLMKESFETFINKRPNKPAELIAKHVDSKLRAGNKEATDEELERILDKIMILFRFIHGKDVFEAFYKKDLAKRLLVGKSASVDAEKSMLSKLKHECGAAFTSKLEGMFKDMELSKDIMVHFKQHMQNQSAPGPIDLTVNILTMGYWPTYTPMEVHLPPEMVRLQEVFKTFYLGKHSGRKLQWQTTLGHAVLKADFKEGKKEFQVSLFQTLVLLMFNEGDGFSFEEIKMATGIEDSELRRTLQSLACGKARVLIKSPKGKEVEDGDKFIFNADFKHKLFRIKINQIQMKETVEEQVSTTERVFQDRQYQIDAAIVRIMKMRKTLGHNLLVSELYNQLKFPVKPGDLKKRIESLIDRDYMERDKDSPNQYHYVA
UniProt Q13617: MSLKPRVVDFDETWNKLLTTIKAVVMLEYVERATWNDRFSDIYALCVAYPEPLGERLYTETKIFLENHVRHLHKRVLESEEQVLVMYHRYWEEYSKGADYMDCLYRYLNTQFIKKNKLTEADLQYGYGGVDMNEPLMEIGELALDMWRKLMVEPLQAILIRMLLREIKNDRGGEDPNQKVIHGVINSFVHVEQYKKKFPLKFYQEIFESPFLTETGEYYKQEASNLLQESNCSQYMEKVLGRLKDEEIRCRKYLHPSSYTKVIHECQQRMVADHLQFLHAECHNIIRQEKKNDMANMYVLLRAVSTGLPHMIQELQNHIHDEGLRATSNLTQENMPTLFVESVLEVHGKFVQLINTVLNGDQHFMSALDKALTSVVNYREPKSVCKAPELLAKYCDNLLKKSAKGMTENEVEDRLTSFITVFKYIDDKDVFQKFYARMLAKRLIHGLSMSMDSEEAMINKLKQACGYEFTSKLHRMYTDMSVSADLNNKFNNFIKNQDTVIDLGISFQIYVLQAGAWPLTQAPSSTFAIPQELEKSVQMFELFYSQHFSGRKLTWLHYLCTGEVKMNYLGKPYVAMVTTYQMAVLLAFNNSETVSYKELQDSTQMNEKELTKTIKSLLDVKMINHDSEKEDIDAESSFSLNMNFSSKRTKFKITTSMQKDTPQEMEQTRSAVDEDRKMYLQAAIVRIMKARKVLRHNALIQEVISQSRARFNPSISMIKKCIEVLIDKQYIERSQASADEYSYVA
UniProt P04386: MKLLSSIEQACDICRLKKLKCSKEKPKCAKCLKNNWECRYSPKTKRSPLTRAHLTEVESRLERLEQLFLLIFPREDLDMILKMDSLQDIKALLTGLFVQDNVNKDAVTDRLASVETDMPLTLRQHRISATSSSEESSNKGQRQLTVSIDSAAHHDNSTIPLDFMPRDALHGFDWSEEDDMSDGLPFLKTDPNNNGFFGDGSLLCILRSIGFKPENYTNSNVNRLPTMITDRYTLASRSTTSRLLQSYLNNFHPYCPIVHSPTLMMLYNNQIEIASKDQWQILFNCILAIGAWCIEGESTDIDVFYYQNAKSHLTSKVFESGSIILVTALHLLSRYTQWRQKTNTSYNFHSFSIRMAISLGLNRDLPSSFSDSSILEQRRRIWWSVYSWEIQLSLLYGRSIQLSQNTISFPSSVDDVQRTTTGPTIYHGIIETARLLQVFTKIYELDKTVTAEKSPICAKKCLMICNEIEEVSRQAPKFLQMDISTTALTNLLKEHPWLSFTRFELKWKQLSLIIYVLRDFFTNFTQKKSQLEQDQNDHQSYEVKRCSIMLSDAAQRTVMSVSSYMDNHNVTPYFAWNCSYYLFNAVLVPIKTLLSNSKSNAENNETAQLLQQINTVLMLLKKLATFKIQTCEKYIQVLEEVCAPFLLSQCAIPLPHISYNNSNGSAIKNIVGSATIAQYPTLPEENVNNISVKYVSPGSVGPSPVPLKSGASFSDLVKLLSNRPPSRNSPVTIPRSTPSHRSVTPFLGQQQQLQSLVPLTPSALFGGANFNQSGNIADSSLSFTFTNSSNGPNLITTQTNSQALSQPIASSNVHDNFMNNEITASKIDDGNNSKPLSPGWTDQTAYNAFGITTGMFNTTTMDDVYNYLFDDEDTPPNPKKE
UniProt Q9UBF6: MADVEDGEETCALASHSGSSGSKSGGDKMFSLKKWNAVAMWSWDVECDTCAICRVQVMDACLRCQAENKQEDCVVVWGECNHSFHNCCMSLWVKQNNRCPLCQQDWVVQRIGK
UniProt Q9NYG5: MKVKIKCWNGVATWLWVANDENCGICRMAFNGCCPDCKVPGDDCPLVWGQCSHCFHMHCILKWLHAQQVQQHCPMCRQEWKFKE

Assays:
[1] = target: myc-epitope tagged cullin 5 (UniProt Q93034); experiment: co-immunoprecipitation from [35S]-methionine labeled transfected cells (FIG. 4D)
[2] = target: myc-epitope tagged cullin 5 (UniProt Q93034); experiment: co-immunoprecipitation with anti-HA from [35S]-methionine labeled transfected cells (FIG. 4D)
[3] = target: myc-epitope tagged APC2 (mouse) (UniProt Q8BZQ7); experiment: reciprocal co-immunoprecipitation from transfected HeLa cells
[4] = target: human CUL1, untagged (transfected, in vitro translated or endogenous) (human) (UniProt Q13616); experiment: co-immunoprecipitation from [35S]-methionine labeled transfected cells (FIG. 4C)
[5] = target: myc-epitope tagged cullin 5 (UniProt Q93034); experiment: as above
[6] = target: myc-epitope tagged mouse CUL4A (mouse) (UniProt Q3TCH7); experiment: as above
[7] = target: myc-epitope tagged cullin 2 (UniProt Q13617); experiment: as above
[8] = target: human CUL1, untagged (transfected, in vitro translated or endogenous) (human) (UniProt Q13616); experiment: co-immunoprecipitation with anti-HA from [35S]-methionine labeled transfected cells (FIG. 4C)
[9] = target: myc-epitope tagged cullin 5 (UniProt Q93034); experiment: as above
[10] = target: myc-epitope tagged mouse CUL4A (mouse) (UniProt Q3TCH7); experiment: as above
[11] = target: myc-epitope tagged cullin 2 (UniProt Q13617); experiment: as above
[12] = target: mouse APC2 fused to the Gal4 DNA binding domain (yeast; mouse) (UniProt P04386+Q8BZQ7); experiment: yeast two-hybrid, -LWH medium with 5 mM 3-AT (FIG. 4E)
[13] = target: cullin 5 fused in frame with the DNA-binding domain of Gal4 (pGBT8) (yeast) (UniProt P04386+Q93034); experiment: yeast two-hybrid (FIG. 4B)
[14] = target: full-length mouse cullin 4A fused in frame with the DNA-binding domain of Gal4 (yeast; mouse) (UniProt P04386+Q3TCH7); experiment: yeast two-hybrid (FIG. 4A)
[15] = target: cullin 2 fused in frame with the DNA-binding domain of Gal4 (pGBT8) (yeast) (UniProt P04386+Q13617); experiment: yeast two-hybrid (FIG. 4A)
[16] = target: human CUL1 fused in frame with the DNA-binding domain of Gal4 (pGBT8) (yeast; human) (UniProt P04386+Q13616); experiment: yeast two-hybrid (FIG. 4A)
[17] = target: HA tagged human ROC2 (human) (UniProt Q9UBF6); experiment: immunoprecipitation with anti-myc from [35S]-methionine labeled transfected cells (FIG. 4C)

binding [1]: binds
binding [2]: binds
binding [3]: binds
Substance: HA tagged human APC11 (from UniProt Q9NYG5 1-84)

binding [4]: binds
binding [5]: binds
binding [6]: binds
binding [7]: binds
binding [8]: binds
binding [9]: binds
binding [10]: binds
binding [11]: binds
Substance: HA tagged human ROC2 (from UniProt Q9UBF6 2-113)

binding [12]: binds
binding [13]: binds
Substance: full length human APC11 fused in-frame with the yeast Gal4 DNA activation domain (from UniProt Q9NYG5 1-84)

binding [14]: binds
binding [15]: binds
binding [16]: binds
Substance: full length human ROC2 fused in-frame with the yeast Gal4 DNA activation domain (from UniProt Q9UBF6 29-113)

binding [17]: binds
Substance: myc-epitope tagged cullin 5 (from UniProt Q93034 1-780)
